Paper PMC7288960
These are yes or no findings as the source states them, for the method shown. Binding seen in cells or lysates may run through a third protein. Some binding calls cover weakened binding; strength is not graded here. Tags and fused reporters may be left off the sequences shown.

Target: T1, GSG2-Flag (Haploid germ cell-specific nuclear protein kinase, Haspin) (UniProt Q8TF76)
T1 sequence: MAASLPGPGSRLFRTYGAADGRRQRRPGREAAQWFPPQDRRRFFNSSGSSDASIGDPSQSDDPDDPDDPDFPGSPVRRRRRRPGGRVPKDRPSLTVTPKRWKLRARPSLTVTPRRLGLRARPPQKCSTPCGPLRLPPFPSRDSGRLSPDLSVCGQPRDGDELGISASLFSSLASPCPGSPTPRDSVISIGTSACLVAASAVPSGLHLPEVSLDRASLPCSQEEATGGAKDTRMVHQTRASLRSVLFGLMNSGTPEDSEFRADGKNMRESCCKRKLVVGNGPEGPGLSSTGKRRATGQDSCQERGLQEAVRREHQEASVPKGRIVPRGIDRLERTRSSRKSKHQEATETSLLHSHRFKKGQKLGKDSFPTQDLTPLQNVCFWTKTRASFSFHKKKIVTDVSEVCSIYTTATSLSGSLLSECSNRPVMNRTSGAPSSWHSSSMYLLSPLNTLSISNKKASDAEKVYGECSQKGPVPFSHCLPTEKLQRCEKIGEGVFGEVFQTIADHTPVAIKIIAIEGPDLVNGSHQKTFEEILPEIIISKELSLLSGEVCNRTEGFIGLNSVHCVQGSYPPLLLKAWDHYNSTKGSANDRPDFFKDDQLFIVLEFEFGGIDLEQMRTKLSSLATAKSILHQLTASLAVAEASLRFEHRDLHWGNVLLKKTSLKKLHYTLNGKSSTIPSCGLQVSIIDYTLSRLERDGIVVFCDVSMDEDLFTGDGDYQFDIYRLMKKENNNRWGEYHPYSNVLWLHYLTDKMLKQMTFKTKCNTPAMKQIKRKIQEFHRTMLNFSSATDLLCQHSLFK
Test: co-IP; whole cell lysate of T24 cells with or without GSG2-Flag overexpression; precipitated by anti-Flag or anti-KIF15; immunocomplex detected with anti-Flag, anti-GSG2 and anti-KIF15

B1: KIF15 (kinesin-12) (protein, UniProt Q9NS87 1-1388)
chain: MAPGCKTELRSVTNGQSNQPSNEGDAIKVFVRIRPPAERSGSADGEQNLCLSVLSSTSLRLHSNPEPKTFTFDHVADVDTTQESVFATVAKSIVESCMSGYNGTIFAYGQTGSGKTFTMMGPSESDNFSHNLRGVIPRSFEYLFSLIDREKEKAGAGKSFLCKCSFIEIYNEQIYDLLDSASAGLYLREHIKKGVFVVGAVEQVVTSAAEAYQVLSGGWRNRRVASTSMNRESSRSHAVFTITIESMEKSNEIVNIRTSLLNLVDLAGSERQKDTHAEGMRLKEAGNINRSLSCLGQVITALVDVGNGKQRHVCYRDSKLTFLLRDSLGGNAKTAIIANVHPGSRCFGETLSTLNFAQRAKLIKNKAVVNEDTQGNVSQLQAEVKRLKEQLAELASGQTPPESFLTRDKKKTNYMEYFQEAMLFFKKSEQEKKSLIEKVTQLEDLTLKKEKFIQSNKMIVKFREDQIIRLEKLHKESRGGFLPEEQDRLLSELRNEIQTLREQIEHHPRVAKYAMENHSLREENRRLRLLEPVKRAQEMDAQTIAKLEKAFSEISGMEKSDKNQQGFSPKAQKEPCLFANTEKLKAQLLQIQTELNNSKQEYEEFKELTRKRQLELESELQSLQKANLNLENLLEATKACKRQEVSQLNKIHAETLKIITTPTKAYQLHSRPVPKLSPEMGSFGSLYTQNSSILDNDILNEPVPPEMNEQAFEAISEELRTVQEQMSALQAKLDEEEHKNLKLQQHVDKLEHHSTQMQELFSSERIDWTKQQEELLSQLNVLEKQLQETQTKNDFLKSEVHDLRVVLHSADKELSSVKLEYSSFKTNQEKEFNKLSERHMHVQLQLDNLRLENEKLLESKACLQDSYDNLQEIMKFEIDQLSRNLQNFKKENETLKSDLNNLMELLEAEKERNNKLSLQFEEDKENSSKEILKVLEAVRQEKQKETAKCEQQMAKVQKLEESLLATEKVISSLEKSRDSDKKVVADLMNQIQELRTSVCEKTETIDTLKQELKDINCKYNSALVDREESRVLIKKQEVDILDLKETLRLRILSEDIERDMLCEDLAHATEQLNMLTEASKKHSGLLQSAQEELTKKEALIQELQHKLNQKKEEVEQKKNEYNFKMRQLEHVMDSAAEDPQSPKTPPHFQTHLAKLLETQEQEIEDGRASKTSLEHLVTKLNEDREVKNAEILRMKEQLREMENLRLESQQLIEKNWLLQGQLDDIKRQKENSDQNHPDNQQLKNEQEESIKERLAKSKIVEEMLKMKADLEEVQSALYNKEMECLRMTDEVERTQTLESKAFQEKEQLRSKLEEMYEERERTSQEMEMLRKQVECLAEENGKLVGHQNLHQKIQYVVRLKKENVRLAEETEKLRAENVFLKEKKRSES
binding: binds
